Results on 3 molecules are retold here after article PMC4995489, “Staphylokinase has distinct modes of interaction with antimicrobial peptides, modulating its plasminogen-activation properties” (Scientific Reports, 2016).

Experiment [1] deals with SakΔN10 (staphylokinase with its first ten residues deleted) (Staphylococcus aureus) (UniProt P68802). In words: ITC; 200-400 μM peptide titrated into 8 μM Sak or SakΔN10 in the cell; 25 °C; 20 mM HEPES, pH 7.4, no salt; One Set of Sites model; at least two experiments each; both purified. For orientation: In ITC the heat of successive injections is recorded.
For experiment [2] the target is unchanged. Nature of the experiment: NMR titration; 1H,15N HSQC of 15N-labelled Sak or SakΔN10, peptide added in steps of 0.5 molar equivalents; 298 K; 20 mM sodium phosphate, 100 mM NaCl, 1 mM EDTA, pH 6.9; both purified.
Experiment [3] addresses Staphylokinase (full-length Sak, sakSTAR sequence) (Staphylococcus aureus) (UniProt P68802). The experiment is described as above.

These are yes or no findings as the source states them, for the method shown. Some binding calls cover weakened binding; strength is not graded here.

B1: Mouse cathelicidin-related antimicrobial peptide (peptide)
peptide: GLLRKGGEKIGEKLKKIGQKIKNFFQKLVPQPEQ
notes: Cathelicidin-related antimicrobial peptide (CRAMP), the C-terminal peptide of the mouse cathelicidin precursor; also called mCRAMP
Turning to B1, the binding result in experiment [1] and in experiment [2] was “binds weakly” throughout.

For the molecule VRRFPWWWPFLRR (C-terminal amide) [Tritrp (C-terminally amidated tritrpticin)], the binding entry in experiment [2] and in experiment [3] was “binds” throughout.

As to FKCRRWQWRMKKLGAPSITCVRRAF (disulfide bond between the two Cys residues (Cys3 and Cys20 of the peptide)) [Bovine lactoferricin], the binding result in experiment [2] and in experiment [3] was “binds” throughout.
